These results are taken from patent US20260125468A1.

These are yes or no findings as the source states them, for the method shown. Binding calls can cover weak binding; strength is not graded here.

The assay concerns the target human CD3e&d-llamaFc. Put plainly: ELISA, plate coated with human CD3e&d-llamaFc at 1 µg/mL, anti-human IgG Fc-HRP [A]. (ELISA stands for enzyme-linked immunosorbent assay.)

B1: PR006364, anti-CD3 A1-HCAb hIgG1(C220S, AAG) (antibody, V domains shown)
VH: RIRLVESGGGLVQAGGSLRLSCAASGRTSGIPAMAWFRQAPGKEREFVAMAWSGGGTIYGDSVKNRFTISRDNTQNTIFLQMNSLKPEDTALYYCAAGRSTSNRADQYNYWGQGTQVTVSS
On to B1, for which the binding result is “binds”.
